Measured values reported in article PMC4929710, “Specificity and mechanism of action of alpha-helical membrane-active peptides interacting with model and biological membranes by single-molecule force spectroscopy” (Scientific Reports, 2016).

Experiments:
Experiment in all cases: Tryptophan fluorescence with LUVs
Type in all cases: binding
PC/Chol (8:1 w/w) LUVs = test system: PC/Chol (8:1 w/w) LUVs
Text: (§1) In order to investigate the interaction between peptides and difference types of cell membranes, three different LUVs were used to mimic a prokaryotic cell membrane (PC/PG), a normal eukaryotic cell membrane (PC/Chol), and a cancer cell membrane (PC/SM/PE/PS/Chol). Tryptophan residue in the peptide sequence was used as a fluorescent probe to examine the interaction of peptides with model membranes. […] For example, in the PC/PG (7:3 w/w) anionic prokaryotic mimicking model membrane, peptides V13L and A12L/A20L had the strongest hydrophobicity with blue shift values of approximately 37 nm and 38 nm, respectively. Conversely, peptide V13E with a negative charge of glutamic acid residue, and peptide L6A/L17A with the lowest hydrophobicity had blue shift values of approximately 18 nm and 17 nm, respectively. […] In addition, within PC/SM/PE/PS/Chol (4.35:4.35:1:0.3:1 w/w) as a cancer-mimicking model membrane, the same results could be obtained in that peptide hydrophobicity correlates with anticancer activity and the blue shift values of peptides.
(§2) In accordance with previously described methods, LUVs were prepared with PC/PG (7:3 w/w), PC/Chol (8:1 w/w), and PC/SM/PE/PS/Chol (4.35:4.35:1:0.3:1 w/w) to mimic prokaryotic cell, […], membranes, respectively. Lipids using the freeze-thaw method as described previously, followed by extrusion through […] double-stacked nuclepore filters using an Mini-Extruder (Avanti Polar Lipids, Inc.)[11][27].
(§3) Three kinds of LUVs were prepared and cultured in HEPES buffer (pH 7.4, 10 mM HEPES, 150 mM NaCl) and the molar concentration was adjusted to 100 μM. A total of 14 μL of 100 μM MAPs was mixed with 686 μL of 100 μM liposomes at 25 °C for 10 min. A Shimadzu RF-5301PC, (excitation wavelength of […], emission wavelength of 300–450 nm) was used to measure the tryptophan fluorescence. Potassium iodide (KI) as a quencher was added to the previous reaction system for a final concentration of 0.02–0.08 M, respectively. The experimental data were plotted according to the Stern–Volmer equation F0/F = 1 + Ksv[Q], where F0 and F are the fluorescence intensity in the absence or presence of a quencher at concentration [Q], respectively, and Ksv is the Stern–Volmer quenching constant.

PC/PG (7:3 w/w) LUVs = settings: HEPES pH 7.4, 25 °C, 10 min
Text: as §1, §2, §3

[1] = test system: PC/SM/PE/PS/Chol (4.35:4.35:1:0.3:1 w/w) LUVs
Text: as §1, §2, §3

SMILES: CC[C@H](C)[C@H](NC(=O)[C@H](C)NC(=O)[C@H](CCCCN)NC(=O)[C@H](CC(C)C)NC(=O)[C@H](C)NC(=O)[C@@H](NC(=O)[C@H](Cc1c[nH]cn1)NC(=O)[C@H](CC(C)C)NC(=O)[C@@H](NC(=O)[C@@H](NC(=O)[C@H](CCCCN)NC(=O)[C@H](CCCCN)NC(=O)[C@H](C)NC(=O)[C@H](CO)NC(=O)[C@H](CCCCN)NC(=O)[C@H](Cc1ccccc1)NC(=O)[C@@H](NC(=O)[C@H](CCCCN)NC(=O)[C@H](CC(C)C)NC(=O)[C@H](Cc1ccccc1)NC(=O)[C@H](CO)NC(=O)[C@H](CCCCN)NC(=O)[C@H](Cc1c[nH]c2ccccc12)NC(=O)[C@H](CCCCN)NC(C)=O)[C@@H](C)O)[C@@H](C)O)C(C)C)[C@@H](C)O)C(=O)N[C@@H](CO)C(=O)N[C@@H](CO)C(N)=O [Peptide V13K]
- PC/Chol Wavelength (emission maximum) (PC/Chol (8:1 w/w) LUVs; HEPES pH 7.4, 25 °C, 10 min): 344 nm
- PC/Chol Intensity (PC/Chol (8:1 w/w) LUVs; tryptophan fluorescence intensity, 25 °C): 78.00
- PC/PG Wavelength (emission maximum) (PC/PG (7:3 w/w) LUVs): 320 nm
- PC/SM/PE/PS/Chol Wavelength (emission maximum) ([1]; PC/SM/PE/PS/Chol (4.35:4.35:1:0.3:1 w/w) LUVs, HEPES pH 7.4, 25 °C, 10 min): 321 nm
- PC/SM/PE/PS/Chol Intensity ([1]; tryptophan fluorescence intensity, PC/SM/PE/PS/Chol LUVs, 25 °C): 247.36
